Laboratory results reported in PMC10434240.
These are yes or no findings as the source states them, for the method shown. In cells and extracts the contact can be indirect. Here binding means that the protein was enriched with, or labelled near, the bait; the list need not be complete.

Chains of the proteins cited; added tags and fusions are not shown. Lines headed by an entry give the natural chain unless they say otherwise; changes in a name come on top.
UniProt P90623: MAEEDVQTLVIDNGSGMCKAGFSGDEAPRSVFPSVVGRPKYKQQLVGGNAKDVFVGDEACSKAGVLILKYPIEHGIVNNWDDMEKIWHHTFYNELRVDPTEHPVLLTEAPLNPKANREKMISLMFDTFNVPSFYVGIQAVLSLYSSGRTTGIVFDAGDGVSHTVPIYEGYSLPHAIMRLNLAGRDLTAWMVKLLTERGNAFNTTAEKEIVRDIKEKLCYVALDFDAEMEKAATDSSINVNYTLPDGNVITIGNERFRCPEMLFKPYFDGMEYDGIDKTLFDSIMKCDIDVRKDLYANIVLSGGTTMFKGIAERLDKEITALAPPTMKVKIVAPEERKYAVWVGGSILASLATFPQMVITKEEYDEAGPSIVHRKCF
UniProt A2E755: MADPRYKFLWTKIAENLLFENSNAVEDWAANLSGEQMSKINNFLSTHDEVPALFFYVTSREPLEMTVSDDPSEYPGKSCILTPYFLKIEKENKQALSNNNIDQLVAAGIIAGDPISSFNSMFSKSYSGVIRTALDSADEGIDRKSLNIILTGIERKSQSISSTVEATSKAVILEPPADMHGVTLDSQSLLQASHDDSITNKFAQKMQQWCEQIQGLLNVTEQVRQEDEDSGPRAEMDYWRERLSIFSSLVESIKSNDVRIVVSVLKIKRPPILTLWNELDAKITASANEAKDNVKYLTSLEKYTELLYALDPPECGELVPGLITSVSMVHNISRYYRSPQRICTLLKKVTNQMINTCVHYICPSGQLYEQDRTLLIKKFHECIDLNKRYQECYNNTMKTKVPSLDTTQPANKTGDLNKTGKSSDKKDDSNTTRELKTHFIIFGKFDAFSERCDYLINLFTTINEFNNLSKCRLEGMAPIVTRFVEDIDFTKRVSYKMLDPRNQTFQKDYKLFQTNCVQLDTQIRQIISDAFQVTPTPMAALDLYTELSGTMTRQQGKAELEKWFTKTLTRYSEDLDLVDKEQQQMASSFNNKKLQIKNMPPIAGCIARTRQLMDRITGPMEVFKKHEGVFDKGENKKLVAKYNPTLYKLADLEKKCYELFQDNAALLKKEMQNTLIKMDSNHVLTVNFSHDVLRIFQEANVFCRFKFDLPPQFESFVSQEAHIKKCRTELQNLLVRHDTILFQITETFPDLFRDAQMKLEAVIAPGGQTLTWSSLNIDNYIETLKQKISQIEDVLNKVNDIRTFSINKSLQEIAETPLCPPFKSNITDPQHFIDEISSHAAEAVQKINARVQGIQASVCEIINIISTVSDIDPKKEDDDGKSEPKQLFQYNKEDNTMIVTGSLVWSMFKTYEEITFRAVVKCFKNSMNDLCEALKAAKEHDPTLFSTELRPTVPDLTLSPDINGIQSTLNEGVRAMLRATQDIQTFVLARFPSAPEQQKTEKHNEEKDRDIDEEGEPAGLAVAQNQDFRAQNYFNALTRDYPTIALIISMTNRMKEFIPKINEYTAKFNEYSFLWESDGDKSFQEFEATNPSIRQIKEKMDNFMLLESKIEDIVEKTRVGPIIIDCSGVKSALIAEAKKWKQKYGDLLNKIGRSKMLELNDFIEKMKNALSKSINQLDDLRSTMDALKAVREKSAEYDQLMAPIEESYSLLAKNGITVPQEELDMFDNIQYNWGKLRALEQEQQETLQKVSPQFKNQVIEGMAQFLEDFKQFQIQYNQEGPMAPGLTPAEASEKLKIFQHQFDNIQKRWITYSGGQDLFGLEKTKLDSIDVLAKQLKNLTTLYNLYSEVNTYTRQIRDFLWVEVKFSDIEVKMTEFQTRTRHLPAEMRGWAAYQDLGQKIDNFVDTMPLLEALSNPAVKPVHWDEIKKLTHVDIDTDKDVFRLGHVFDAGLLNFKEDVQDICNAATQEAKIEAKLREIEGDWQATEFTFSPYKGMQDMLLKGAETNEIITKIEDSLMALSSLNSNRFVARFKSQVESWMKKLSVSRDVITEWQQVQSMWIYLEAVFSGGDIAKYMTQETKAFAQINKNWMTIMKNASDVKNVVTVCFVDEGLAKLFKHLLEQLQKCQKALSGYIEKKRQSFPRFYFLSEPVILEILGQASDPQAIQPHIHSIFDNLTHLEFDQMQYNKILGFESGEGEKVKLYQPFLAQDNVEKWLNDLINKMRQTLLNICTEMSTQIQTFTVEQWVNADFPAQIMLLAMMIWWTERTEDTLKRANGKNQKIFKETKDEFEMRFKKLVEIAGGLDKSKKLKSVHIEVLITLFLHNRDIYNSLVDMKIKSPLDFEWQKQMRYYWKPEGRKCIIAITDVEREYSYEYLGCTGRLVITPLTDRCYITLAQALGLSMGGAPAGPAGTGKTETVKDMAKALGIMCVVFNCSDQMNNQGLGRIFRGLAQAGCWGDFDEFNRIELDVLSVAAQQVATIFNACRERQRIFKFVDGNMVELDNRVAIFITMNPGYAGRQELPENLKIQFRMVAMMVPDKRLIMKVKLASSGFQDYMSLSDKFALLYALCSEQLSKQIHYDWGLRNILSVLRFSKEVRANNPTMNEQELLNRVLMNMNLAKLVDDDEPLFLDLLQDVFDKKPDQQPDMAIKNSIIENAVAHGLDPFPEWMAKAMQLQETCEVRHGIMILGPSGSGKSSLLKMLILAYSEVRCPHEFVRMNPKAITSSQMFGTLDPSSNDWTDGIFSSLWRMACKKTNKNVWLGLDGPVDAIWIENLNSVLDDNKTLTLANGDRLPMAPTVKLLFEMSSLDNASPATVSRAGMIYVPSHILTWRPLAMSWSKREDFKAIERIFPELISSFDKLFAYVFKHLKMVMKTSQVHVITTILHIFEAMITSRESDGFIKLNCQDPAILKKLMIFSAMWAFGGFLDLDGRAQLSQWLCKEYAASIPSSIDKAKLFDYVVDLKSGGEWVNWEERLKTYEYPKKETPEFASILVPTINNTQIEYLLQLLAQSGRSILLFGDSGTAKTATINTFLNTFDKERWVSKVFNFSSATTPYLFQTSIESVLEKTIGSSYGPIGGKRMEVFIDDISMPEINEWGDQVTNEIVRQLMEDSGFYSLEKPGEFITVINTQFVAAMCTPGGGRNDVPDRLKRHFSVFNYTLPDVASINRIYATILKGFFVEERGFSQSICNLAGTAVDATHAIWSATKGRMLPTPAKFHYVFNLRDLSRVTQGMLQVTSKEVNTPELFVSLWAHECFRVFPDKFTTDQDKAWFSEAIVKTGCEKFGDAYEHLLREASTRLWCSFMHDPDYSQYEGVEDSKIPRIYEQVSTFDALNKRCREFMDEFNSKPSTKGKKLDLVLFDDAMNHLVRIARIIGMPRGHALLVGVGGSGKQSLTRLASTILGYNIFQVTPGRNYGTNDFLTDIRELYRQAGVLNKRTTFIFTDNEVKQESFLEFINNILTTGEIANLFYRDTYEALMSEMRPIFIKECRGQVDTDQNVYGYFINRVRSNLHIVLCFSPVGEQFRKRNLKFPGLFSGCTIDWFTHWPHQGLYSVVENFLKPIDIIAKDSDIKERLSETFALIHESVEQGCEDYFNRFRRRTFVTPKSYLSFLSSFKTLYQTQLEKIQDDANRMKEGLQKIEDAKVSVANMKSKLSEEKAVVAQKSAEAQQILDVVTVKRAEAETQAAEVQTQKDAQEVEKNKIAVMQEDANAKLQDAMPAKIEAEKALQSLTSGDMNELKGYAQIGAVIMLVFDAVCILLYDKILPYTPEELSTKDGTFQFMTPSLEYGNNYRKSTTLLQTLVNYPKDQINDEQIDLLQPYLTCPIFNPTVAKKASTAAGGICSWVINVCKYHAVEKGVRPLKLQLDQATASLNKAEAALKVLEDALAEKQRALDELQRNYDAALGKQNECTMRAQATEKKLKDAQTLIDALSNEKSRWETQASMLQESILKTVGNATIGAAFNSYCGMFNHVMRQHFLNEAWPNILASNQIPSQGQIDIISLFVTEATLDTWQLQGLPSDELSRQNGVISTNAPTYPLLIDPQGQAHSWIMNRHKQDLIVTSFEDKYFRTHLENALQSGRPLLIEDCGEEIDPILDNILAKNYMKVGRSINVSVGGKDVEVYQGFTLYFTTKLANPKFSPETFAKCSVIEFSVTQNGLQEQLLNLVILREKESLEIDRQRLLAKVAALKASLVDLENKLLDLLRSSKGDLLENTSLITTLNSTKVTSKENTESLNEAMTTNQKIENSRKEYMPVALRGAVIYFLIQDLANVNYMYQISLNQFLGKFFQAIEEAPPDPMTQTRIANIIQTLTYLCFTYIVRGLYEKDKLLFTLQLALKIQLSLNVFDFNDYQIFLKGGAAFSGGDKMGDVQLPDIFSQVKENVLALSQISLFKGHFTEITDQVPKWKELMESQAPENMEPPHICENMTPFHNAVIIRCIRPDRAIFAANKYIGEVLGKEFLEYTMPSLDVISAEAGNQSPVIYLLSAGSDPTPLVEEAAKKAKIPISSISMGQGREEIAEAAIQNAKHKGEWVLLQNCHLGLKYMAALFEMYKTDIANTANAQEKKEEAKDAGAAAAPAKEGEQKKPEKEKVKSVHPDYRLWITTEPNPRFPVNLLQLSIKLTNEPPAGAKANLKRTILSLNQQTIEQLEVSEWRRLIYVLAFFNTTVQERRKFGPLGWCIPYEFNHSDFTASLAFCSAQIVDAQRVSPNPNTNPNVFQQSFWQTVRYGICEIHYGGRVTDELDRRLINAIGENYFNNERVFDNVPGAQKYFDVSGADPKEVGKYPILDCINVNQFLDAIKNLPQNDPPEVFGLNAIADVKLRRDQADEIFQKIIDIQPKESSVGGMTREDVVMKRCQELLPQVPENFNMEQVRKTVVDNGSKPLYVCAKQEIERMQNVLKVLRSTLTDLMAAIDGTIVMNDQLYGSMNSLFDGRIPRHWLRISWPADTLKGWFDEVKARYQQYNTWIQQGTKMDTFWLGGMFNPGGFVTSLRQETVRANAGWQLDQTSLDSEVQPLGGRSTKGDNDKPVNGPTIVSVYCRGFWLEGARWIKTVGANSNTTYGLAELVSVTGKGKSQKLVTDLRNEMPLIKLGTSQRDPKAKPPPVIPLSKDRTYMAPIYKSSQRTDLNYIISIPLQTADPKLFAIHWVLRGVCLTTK
UniProt Q27088: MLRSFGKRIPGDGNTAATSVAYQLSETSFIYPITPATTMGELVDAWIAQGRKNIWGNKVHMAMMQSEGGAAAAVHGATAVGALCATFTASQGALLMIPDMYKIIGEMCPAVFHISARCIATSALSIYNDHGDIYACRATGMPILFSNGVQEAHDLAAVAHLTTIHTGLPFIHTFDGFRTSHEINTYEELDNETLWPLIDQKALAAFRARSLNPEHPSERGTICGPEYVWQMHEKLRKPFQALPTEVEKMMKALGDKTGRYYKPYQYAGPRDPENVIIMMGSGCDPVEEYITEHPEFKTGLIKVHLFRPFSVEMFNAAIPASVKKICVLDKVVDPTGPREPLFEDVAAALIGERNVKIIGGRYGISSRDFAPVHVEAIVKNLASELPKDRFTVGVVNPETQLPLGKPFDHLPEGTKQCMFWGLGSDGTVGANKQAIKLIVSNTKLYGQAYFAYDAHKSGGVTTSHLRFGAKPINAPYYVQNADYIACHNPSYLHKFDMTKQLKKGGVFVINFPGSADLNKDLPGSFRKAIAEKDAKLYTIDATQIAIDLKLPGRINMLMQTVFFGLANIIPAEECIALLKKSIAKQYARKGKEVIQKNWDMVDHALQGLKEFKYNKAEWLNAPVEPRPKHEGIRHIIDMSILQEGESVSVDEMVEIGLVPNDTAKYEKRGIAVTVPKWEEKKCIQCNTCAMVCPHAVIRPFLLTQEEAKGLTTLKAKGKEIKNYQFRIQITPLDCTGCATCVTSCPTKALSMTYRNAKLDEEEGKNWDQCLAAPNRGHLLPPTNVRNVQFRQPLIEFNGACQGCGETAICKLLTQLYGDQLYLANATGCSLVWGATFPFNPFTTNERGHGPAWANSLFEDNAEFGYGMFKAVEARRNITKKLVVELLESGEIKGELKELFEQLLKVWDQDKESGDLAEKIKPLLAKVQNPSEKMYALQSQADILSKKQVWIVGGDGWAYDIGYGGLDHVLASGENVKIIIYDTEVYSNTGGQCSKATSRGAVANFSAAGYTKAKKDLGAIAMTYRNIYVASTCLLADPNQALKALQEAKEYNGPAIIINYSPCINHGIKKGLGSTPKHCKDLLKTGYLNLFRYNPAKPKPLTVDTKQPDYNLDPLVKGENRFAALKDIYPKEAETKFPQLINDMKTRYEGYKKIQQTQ
UniProt A2GKR2: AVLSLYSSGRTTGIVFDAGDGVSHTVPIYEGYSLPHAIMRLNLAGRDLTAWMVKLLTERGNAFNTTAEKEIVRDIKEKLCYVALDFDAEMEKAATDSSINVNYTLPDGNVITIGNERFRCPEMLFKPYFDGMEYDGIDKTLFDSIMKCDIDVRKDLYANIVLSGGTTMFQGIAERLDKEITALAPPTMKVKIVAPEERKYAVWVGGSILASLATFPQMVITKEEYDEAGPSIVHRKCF

What follows are substances tested against HA-TvActin (Trichomonas vaginalis) (UniProt P90623) (assay: affinity purification with mass spectrometry; HA-TvActin immunoprecipitated with anti-HA agarose beads from lysate of transgenic TH17 trophozoites (1% Triton X-100, 5 mM EDTA in TBS, 4°C overnight); SDS-PAGE, LC-MS/MS, label-free emPAI).

binding	Substance
binds	Dynein heavy chain family protein (TVAG_006480) (from UniProt A2E755 1-4660)
binds	Pyruvate:ferredoxin oxidoreductase A (from UniProt Q27088) (enzyme)

The remaining lines, values behind:

Substance	binding
Actin (fragment) (from UniProt A2GKR2)	binds
Dynein heavy chain family protein (TVAG_497260) (from UniProt A2EGW8 1-4493)	binds
Vacuolar proton pump subunit B (from UniProt A2ES57 1-496)	binds
